From patent US5049506A, “Proline-containing decapeptides as substrates for factor XIII” (Behringwerke Aktiengesellschaft, priority 1987, dated 1991)
Part of at least one peptide drawing is inferred or uncertain, most often the ends. Residues, ends and D or L forms follow the SMILES beside them.

Target: T1, factor XIII (Homo sapiens, UniProt P00488)
T1 sequence (P00488 39-732 limits assumed): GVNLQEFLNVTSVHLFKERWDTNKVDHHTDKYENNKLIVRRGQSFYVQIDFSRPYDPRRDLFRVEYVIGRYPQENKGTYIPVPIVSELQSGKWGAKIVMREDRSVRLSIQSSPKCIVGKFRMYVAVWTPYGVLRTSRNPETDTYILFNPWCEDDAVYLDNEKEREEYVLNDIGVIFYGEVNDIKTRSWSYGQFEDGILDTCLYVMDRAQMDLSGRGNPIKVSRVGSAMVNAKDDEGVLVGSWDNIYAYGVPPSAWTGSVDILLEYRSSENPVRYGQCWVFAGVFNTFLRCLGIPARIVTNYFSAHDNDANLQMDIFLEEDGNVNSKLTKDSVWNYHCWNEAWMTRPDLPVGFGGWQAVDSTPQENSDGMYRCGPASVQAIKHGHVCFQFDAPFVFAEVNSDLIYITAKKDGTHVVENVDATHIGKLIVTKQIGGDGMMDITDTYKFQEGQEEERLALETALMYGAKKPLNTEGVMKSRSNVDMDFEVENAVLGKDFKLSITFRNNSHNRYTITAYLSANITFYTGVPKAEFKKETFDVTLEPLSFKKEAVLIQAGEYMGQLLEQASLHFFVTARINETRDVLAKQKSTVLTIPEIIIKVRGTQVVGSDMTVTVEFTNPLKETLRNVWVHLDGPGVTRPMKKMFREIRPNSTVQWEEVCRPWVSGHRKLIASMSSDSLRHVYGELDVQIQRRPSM
Assay: Determination of factor XIII activity by photometric measurement (peptide as substrate, NADH/GLDH-coupled ammonia detection)
Assay type: biochemical
Conditions: decrease in extinction at 340 nm; factor XIII 0.6 U activated with thrombin at 37° C. for 10 min; 100 μl decapeptide amide solution (10 mg/ml in H2O); glycine ethyl ester
Description: To test the peptides for their suitability as substrates for the transglutaminase F XIII, a sample solution which contains factor XIII is activated in a buffer mixture which contains about 30mmol/1 calcium chloride at pH 7.6±0.5 with thrombin. The peptide solutions, a solution of an amine derivative, for example glycine ethyl ester or glycine methyl ester, ketoglutarate buffer, glutamic dehydrogenase and an NADH solution are then added. The liberation of ammonia from the decapeptide amide is then measured by means of the decrease in extinction at 340±15nm, and the activity of F XIII is determined.
50 μl of a solution containing factor XIII (0.6 U), which had been adjusted to pH 7.6 and which contained 50 millimolar HEPES, 150 milli molar sodium chloride and 30 millimolar CaC12, were incubated with 25 μl of thrombin solution (30 units dissolved in 1 ml physiological saline) in a 1 ml cuvette at 37° C. for 10 min. 700 μl of a buffer solution composed of triethanolamine pH 8.0, 2.2 g of alpha-ketoglutarate/liter and 133 mg of NADH/liter were added. The sample solution was then mixed with 25 μl of a solution of […] of glutamic dehydrogenase (about 120 units/mg), 100 ml of glycerol, pH 7, 100 μl of glycine ethyl ester (30 mg/ml in H2 O) and 100 μl of decapeptide amide solution (10 mg/ml in H2 O). The decrease in extinction was measured. […]

| SMILES | Delta OD/min |
| --- | --- |
| CC(C)C[C@H](NC(=O)[C@@H](NC(=O)[C@H](CCCCN)NC(=O)CNC(=O)[C@H](CCC(N)=O)NC(=O)CNC(=O)CNC(=O)CNC(=O)[C@@H](N)CC(C)C)C(C)C)C(=O)NCC(N)=O [Leu--Gly--Gly--Gly--Gln--Gly--Lys--Val--Leu--Gly--NH2, reference compound] (H-LGGGQGKVLG-NH2) | 0.12 OD/min |
| CC(C)C[C@H](NC(=O)[C@H](CO)NC(=O)[C@@H](N)CC(C)C)C(=O)N[C@@H](CO)C(=O)N[C@@H](CCC(N)=O)C(=O)N[C@@H](CO)C(=O)N[C@@H](CCCCN)C(=O)N[C@H](C(=O)N[C@@H](CC(C)C)C(=O)NCC(N)=O)C(C)C [Leu--Ser--Leu--Ser--Gln--Ser--Lys--Val--Leu--Gly--NH2, reference compound] (H-LSLSQSKVLG-NH2) | 0.21 OD/min |
